# Source: paper PMC5643561, “Zdhhc13-dependent Drp1 S-palmitoylation impacts brain bioenergetics, anxiety, coordination and motor skills” (Scientific Reports, 2017)
# By UniProt entry, the sequences of proteins in these tests, tags left out.
# UniProt Q8K1M6: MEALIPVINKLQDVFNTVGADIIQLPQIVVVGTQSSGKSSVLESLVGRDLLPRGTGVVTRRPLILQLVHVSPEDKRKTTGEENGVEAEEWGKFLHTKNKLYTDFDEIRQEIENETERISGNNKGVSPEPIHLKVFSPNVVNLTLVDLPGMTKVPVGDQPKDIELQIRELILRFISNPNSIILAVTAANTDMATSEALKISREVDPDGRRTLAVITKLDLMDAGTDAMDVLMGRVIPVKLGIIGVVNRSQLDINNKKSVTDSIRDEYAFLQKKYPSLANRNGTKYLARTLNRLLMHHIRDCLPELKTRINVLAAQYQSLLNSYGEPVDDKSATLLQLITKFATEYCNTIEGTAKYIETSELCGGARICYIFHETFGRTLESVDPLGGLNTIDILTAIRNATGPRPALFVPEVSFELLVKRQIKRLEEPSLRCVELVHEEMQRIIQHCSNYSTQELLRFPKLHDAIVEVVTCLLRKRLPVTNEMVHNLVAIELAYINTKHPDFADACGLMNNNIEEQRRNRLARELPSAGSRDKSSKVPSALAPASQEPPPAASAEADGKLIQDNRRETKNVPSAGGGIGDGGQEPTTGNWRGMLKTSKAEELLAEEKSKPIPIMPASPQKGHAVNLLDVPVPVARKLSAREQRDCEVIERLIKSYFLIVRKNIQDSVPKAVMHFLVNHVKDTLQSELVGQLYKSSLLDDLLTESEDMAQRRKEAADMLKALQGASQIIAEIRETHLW
# No constants are given. Whether binding was seen depends on the method and setting. In cells and extracts the contact can be indirect. Some binding calls cover weakened binding; strength is not graded here.
# Molecular target: T1, Zdhhc13, endogenous, WT mouse brain (mouse (endogenous in brain)) (UniProt Q9CWU2)
# T1 sequence: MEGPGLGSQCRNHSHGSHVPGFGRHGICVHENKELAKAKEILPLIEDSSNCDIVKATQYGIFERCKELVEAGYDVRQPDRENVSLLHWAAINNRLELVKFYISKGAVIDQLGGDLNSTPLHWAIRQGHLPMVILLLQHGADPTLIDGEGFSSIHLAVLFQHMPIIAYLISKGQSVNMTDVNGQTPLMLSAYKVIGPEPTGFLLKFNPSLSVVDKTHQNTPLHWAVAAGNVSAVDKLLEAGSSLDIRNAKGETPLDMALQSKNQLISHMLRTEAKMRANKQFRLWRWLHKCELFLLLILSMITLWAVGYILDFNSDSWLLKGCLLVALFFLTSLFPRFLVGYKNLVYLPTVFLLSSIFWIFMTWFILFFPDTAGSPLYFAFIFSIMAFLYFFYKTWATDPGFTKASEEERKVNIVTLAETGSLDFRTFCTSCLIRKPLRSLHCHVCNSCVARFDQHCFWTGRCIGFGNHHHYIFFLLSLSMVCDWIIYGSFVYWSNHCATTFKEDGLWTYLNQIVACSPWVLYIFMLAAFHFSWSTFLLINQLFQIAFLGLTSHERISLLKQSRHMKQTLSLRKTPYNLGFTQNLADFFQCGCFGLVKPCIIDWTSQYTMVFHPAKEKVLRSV
# Experiment: co-IP; 1 mg whole brain lysate of WT and HOM mice; anti-Zdhhc13 antibody (#4733) or anti-Drp1 antibody overnight at 4 °C; Dynabeads; PBS washes; blot with anti-Drp1
substance,measurement,value
"Drp1, endogenous, mouse brain (from UniProt Q8K1M6 1-736)",binding,binds
